# Experimental data reported in EP0348490B1, “TREATMENT OF TYPE 2 DIABETES MELLITUS” (AMYLIN PHARMACEUTICALS, INC., priority 1988, dated 1995).
# Part of at least one peptide drawing is inferred or uncertain, most often the ends.
# Columns and labels:
# islet B-cells = settings: cited from earlier work
# [1] = system: isolated islets of Langerhans; assay: Glucose-stimulated insulin production by isolated islets of Langerhans; assay type: cell-based, rats; settings: 10 mmol/L glucose; somatostatin 1 ug/mL (650 nmol/L); varying concentrations of CGRP 27-37
# Protocol: The following experiments illustrate the fact that subpeptides of amylin can act to reduce the amount of insulin produced by isolated islets of Langerhans in response to a standard glucose challenge. […] All experiments were performed by known methods used in experimental practice. See, e.g., Lacey PE, and Kostianovsky M, Method for the isolation of intact islets of Langerhans from the rat pancreas. Diabetes 1967; 16:35-39.
# Briefly, rats were killed, and islets of Langerhans were isolated from their pancreases. Experiments were performed either with freshly isolated islets or after overnight incubation of islets (23 h) in standard culture medium and conditions at 37°C. […]
# Production of insulin is expressed as µU/islet/h. […] The integrity of the islet response was assessed by comparing the responses after stimulation of different aliquots of islets by two and ten mmol/L glucose, respectively, and the strength of the inhibitory response was judged against that induced by 1 µg/ml (650 nmol/L) somatostatin. […]
# The results are shown in TABLE 5 below and all results are expressed as ± standard error of the mean (s.e.m.). The significance of differences between the means of groups is assessed by the t-test. […] In all other experimental conditions, the significance of the inhibitory effect is measured against the effect of 10 mmol/L glucose alone.
smiles,measurement,setting,value
"C[C@H](N)C(=O)NCC(=O)N[C@H]1CSSC[C@@H](C(=O)O)NC(=O)[C@H](CO)NC(=O)[C@H]([C@@H](C)O)NC(=O)[C@H](Cc2ccccc2)NC(=O)[C@H]([C@@H](C)O)NC(=O)[C@H](CCCCN)NC(=O)[C@H](Cc2c[nH]c3ccccc23)NC(=O)[C@H](Cc2ccccc2)NC(=O)[C@H](Cc2ccccc2)NC(=O)[C@H](CC(N)=O)NC(=O)[C@H](CCCCN)NC1=O [somatostatin, reference compound]",inhibition of glucose stimulated insulin secretion (literature),islet B-cells,potent inhibitor
same,inhibition of insulin secretion compared with that seen with amylin 27-37,[1],no significant difference
